Results on 6 substances are retold here after patent US20060177894A1.

By UniProt entry, the sequences of proteins in these tests, tags left out. Residues count along the entry.
UniProt P16235, residues 27-700: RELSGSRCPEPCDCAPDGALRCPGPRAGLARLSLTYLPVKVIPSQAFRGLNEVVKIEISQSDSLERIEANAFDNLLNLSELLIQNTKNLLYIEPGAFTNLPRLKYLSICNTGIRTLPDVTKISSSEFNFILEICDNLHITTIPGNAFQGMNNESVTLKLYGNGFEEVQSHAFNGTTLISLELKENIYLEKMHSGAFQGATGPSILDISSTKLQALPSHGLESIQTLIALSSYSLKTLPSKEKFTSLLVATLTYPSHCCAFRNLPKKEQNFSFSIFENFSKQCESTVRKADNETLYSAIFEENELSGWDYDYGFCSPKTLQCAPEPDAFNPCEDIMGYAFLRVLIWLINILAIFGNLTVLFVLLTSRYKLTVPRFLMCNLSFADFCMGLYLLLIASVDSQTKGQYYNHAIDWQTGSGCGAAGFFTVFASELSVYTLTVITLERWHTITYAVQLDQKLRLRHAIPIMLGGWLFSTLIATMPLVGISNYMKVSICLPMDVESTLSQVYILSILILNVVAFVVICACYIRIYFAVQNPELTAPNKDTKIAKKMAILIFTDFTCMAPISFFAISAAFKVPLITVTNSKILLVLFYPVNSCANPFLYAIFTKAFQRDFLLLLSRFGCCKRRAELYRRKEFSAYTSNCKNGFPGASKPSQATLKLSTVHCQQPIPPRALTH

Results are given in words; binding and its absence hold for the method and conditions named. Some results given as binding are weak or reduced against the parent protein; the word gives no strength.

Assay [1] has as its target rat lutropin receptor (LHR) (rat) (UniProt P16235). Nature of the assay: LHR binding and signaling assays.
For assay [2] the target is unchanged. The assay can be described thus: LHR assays.

Take “hCG-αCTδ116/135,138C + hCG β-subunit analog with cysteine in place of Ser96 (from UniProt P0DN86 21-165) (ligand)”: the binding entry in assay [1] is “binds”.
For the substance “hCG-αCTδ116/135,138C + hCG β-subunit analog with cysteine in place of Thr97 (from UniProt P0DN86 21-165) (ligand)”, the binding entry in assay [1] is “binds”.
Still for that read-out and setting: with “hCG-αK44A (from UniProt P0DN86 21-165) (ligand)” the entry was “binds”; with “hCG-αK44R (from UniProt P0DN86 21-165) (ligand)”, “binds”.
“hCG-αCTδ116/135,138C + hCG β-subunit analog with cysteine in place of Arg94 (from UniProt P0DN86 21-165) (ligand)”: the binding entry in assay [2] was “binds”.
As for “hCG-αCTδ116/135,138C + hCG β-subunit analog with cysteine in place of Thr98 (from UniProt P0DN86 21-165) (ligand)”, the binding result in assay [1] is listed as “binds”.
